# In PubChem BioAssay AID1347426 (Functional Genomics Laboratory (NCATS/FGL), 2020):
# Out of some 31,000 sequences screened, about 1,400 (4.5%) were called active.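 Rule for the calls: active = median seed-adjusted z-score above 1 or below -1; inactive = the rest.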 Some of the results follow.
# Test: Novel Modifiers of Survival Motor Neuron (SMN) Protein: Gene Identification via Genome-wide siRNA Screen;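 note: luminescence tracks full-length SMN protein made from the SMN2 reporter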
# Conditions: HEK293T SMN2-luciferase reporter, siRNA knockdown, 72 h; actives lie on both sides
# Method in brief: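 HEK293T cells stably carrying an SMN2 promoter/splicing cassette–luciferase reporter were reverse-transfected with 1 pmol siRNA per well (druggable-genome library, 3 siRNAs per gene) and grown 72 h at 37 °C. Luminescence, normalized to negative-control siRNA and log10-transformed, was scored as MAD.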
row,Sequence,median seed-adjusted z-score
1,CCGUCUUCAGAAAAGCGAATT against CLASP1,inactive: 0.0472
2,AGGAGAAGUUUGCACUGGATT against OSBPL5,inactive: 0.638
3,GCAAGCCUUUCAAAUGGUATT against GALNT2,inactive: 0.0798
4,CACUGUUUAUGUAAAAUCATT against SPDYA,inactive: 0.351
5,GCCGUGUGACAAUCGAAUATT against ALDH9A1,inactive: -0.297
6,GAACUUACGGUAACAGGCATT against PYCRL,inactive: 0.498
7,GACUGGGACUUCUCGAUGATT against BDH2,inactive: -0.242
8,GAAUCCAGUUAUCAUCAAATT against ST3GAL5,inactive: 0.11
9,GGUCAUUCACUAGUAUCAATT against MAP3K2,inactive: 0
10,ACCACAAGUUCAUCCGGAATT against TRIM50,inactive: 0
11,GCAUGAUUGCGCUCAUGGATT against CAPN3,inactive: 0.0426
12,AGGAAGAGUUUAACAUUGATT against ATP6V1E2,inactive: -0.162
13,CAUUGGAAUUCUUUCAAUATT against APTX,inactive: -0.131
14,GCAGAUCGAUUUCUCAACATT against ABCA1,active: -1.27
15,CCAAGGUACUAACAUGGGATT against AP3M1,inactive: 0
16,CUCUUUACCCACAACUUAATT against ZNF540,inactive: -0.439
17,CUACGACAUUUGCUUCAGATT against TUBB2C,inactive: 0
18,GAGGGUCUCUGGUACCUGATT against PRSS8,inactive: -0.275
19,GACCUACUGUCAAGAUACATT against SIGLEC12,inactive: 0.226
20,CAAACUUCCGUAUCACAGUTT against GPD1,inactive: 0.558
21,UGAGCACUGUGAAAUCCAATT against KCNE2,inactive: -0.666
22,GGCCUAGGCUCUCUGUAGATT against TIMM10,inactive: 0.0738

row,Sequence,median seed-adjusted z-score
1,GGAACACGCUGUUCAUUGATT against SERPINA12,inactive: -0.382
2,GAUCAAUCCAGGGACUAUATT against CHD9,inactive: 0.218
3,GGUGUCCUCCAUCUACUUATT against MRGPRF,inactive: -0.654
4,AUAUGUACCUUACUCGAGATT against HOXA10,inactive: -0.112
5,CCACUACCCUGAGAACUUUTT against TOP3B,active: -1.11
6,GCCCAGCAGUAUCUCCUAUTT against CPA6,inactive: 0.343
7,UGCUGGUGUUUAAACCCAUTT against C5AR1,inactive: 0.366
8,ACUAAGAUUUAUUACUGUATT against DDX11,inactive: 0
9,GACUCCAAUUCAUAUAUCATT against CDKN3,inactive: -0.03
10,GGAUCGUCUUCAACGUAUUTT against HCN3,inactive: 0.301
11,CAGUAUAUGUCAAACCUCUTT against GJB4,inactive: 0.131
12,CUACUACGGAGACUACCAATT against LHX5,inactive: -0.414
13,GUAGGAAAGUUUAUCCAGUTT against GPAM,inactive: 0.237
14,ACAGCGACGUGUUCUCUGATT against PKN1,inactive: -0.753
15,GACAAAUUGUUGAAGAGGATT against ZNF133,inactive: -0.199
16,GCUUCAUCAAGCUACCCAATT against FOXF1,inactive: -0.148
17,UCAGUUCCCUGAAAGACUATT against APOC3,inactive: 0.185
18,GGAUUCUUACCGGAUAUUATT against DDB2,inactive: 0
19,GAUGAAAGGUUACAAUCCATT against EIF2B5,inactive: -0.432
20,CAAACUAGAUUGUAAUUCATT against PCDHGA12,inactive: 0.561
21,GGAUCCAAGAGAAAUGCGATT against GPR115,inactive: -0.189
22,GCUCAAUGCUUCGAAUUCATT against HDAC9,inactive: -0.135

row,Sequence,median seed-adjusted z-score
1,CACCUGUGCUAUUACCACATT against SEC63,inactive: -0.159
2,GCUGCACACCGUAACCACATT against OPN5,inactive: 0.483
3,GUGUCGAAGUGGAAACUGATT against EXOSC7,inactive: 0.0148
4,GGGAAGGCAAUAAAACUUATT against TAAR9,active: -1.07
5,GCACUUACAGGACCAUGUATT against EGFL8,inactive: 0.365
6,CGAUAACAACGACAUUGCATT against COL6A1,inactive: 0.509
7,CACUGUCCUUGGGUGAAUATT against ZDHHC20,inactive: -0.936
8,GAUGAUCAGUAGAAUUGAATT against CSNK1A1,inactive: -0.608
9,CAACCUGAGUUUUAAAAUATT against TUBB2B,inactive: 0.935
10,AGUCCCUCUUCGUCUCUAATT against ALDOA,inactive: -0.258
11,CCAUCACCAGCUUUAUUGATT against GDF5,inactive: -0.0507
12,GCAUGUGACCCAGAGGUUATT against ACIN1,inactive: -0.674
13,UACAUGAUAUGAUCAUUAATT against ARL4A,inactive: -0.572
14,CAUCUGCACUGGGCAAGAATT against NOX5,inactive: 0.178
15,GCUGCUUGUGGAUUCGCUATT against TLN2,inactive: -0.0106
16,AGAAGACAGAGGGUUCGAATT against OSCAR,inactive: 0.114
17,UCAAGUCCCUGGUCCUGCATT against HIC2,inactive: -0.283
18,UCACUUUCCCUGUAAAUAUTT against CD84,inactive: 0.629
19,GGAUAGCAAUAGAUUGCGATT against PHF20L1,inactive: 0
20,GGAUCGAGGACAUGAGGAATT against IKBKG,inactive: -0.615
21,CAUGGAACAUUGUGAGAAATT against RPS6KB1,active: 1.4
22,GCAUAAAACUGAAGGUGGATT against PTPRN,inactive: -0.272

row,Sequence,median seed-adjusted z-score
1,GGACUUGACAUGACUGGAATT against RORB,inactive: 0.044
2,CCCUGAUUGCUCUAAAGAATT against IGHMBP2,inactive: -0.271
3,GCGAAACGGAGGAACGAAATT against DDX31,inactive: 0.0144
4,GCAUUUCGCGGAGUACGCATT against MPST,inactive: -0.181
5,CAACCUAAAGAGACCCUAATT against PRSS33,inactive: -0.588
6,AUACCAAGGUGCAAUUAAATT against HOXA13,inactive: -0.136
7,CCCAAUCCUUUAUGUUUUUTT against CCRL1,inactive: -0.347
8,GCAUUUUGCAUAUCCACCATT against TRMT12,inactive: 0.352
9,GAACUUAUCAUAUCAAGUUTT against CTNND1,inactive: 0.38
10,GGAAAUACCACGAUGCAAATT against CTCFL,inactive: -0.362
11,GCCUACAACUUUUCAACCATT against SEC24A,inactive: 0.038
12,GUCAUAGCCUGGAUGGAAATT against CPXM2,inactive: 0
13,GGUUGCUAUAUGUUCCGAATT against MLL,inactive: 0.227
14,CUACGUCGCCUCUACCAAATT against CTNNA1,inactive: -0.0588
15,AACAGUAUCUUUCAGAAUATT against TMPRSS5,active: 1.25
16,AGUCUGCCCUGACCGUGAATT against RASL12,inactive: -0.256
17,GUCACUUCAUGGGCAAGAATT against NMB,inactive: 0.746
18,GAGUCUAACUAGUUAUGAUTT against MCOLN3,inactive: -0.09
19,CCAGUUGCAAUUAAGUAUATT against AGPAT9,inactive: 0
20,CGGACUCUUCAGUAGUUAATT against ANGPTL5,inactive: 0
21,AGAUAUCUUUCAGAUCCAATT against SYNPR,inactive: 0.257
22,GACAAGUAGUAUUAUCGGATT against TXNDC3,inactive: -0.649

row,Sequence,median seed-adjusted z-score
1,GCAUGGAUGCUUCUAGACATT against AKAP9,active: -1.22
2,GCGGGUGACCUAUAACAAUTT against TES,inactive: -0.698
3,CGAUAUAUGGAAGAUAGUATT against PTK2,inactive: -0.0806
4,GGCUUUCUGUGGUCGGGUATT against ANGPT4,inactive: 0
5,GGCAGAUUGUGGAUGCGCATT against PML,inactive: -0.415
6,GAUGGAUUCUUUGCGAGAATT against QSOX1,inactive: -0.154
7,GGCAAUGUUGUUUAAUGUATT against THAP3,inactive: 0.269
8,CAUGUACUAUUUUCAGUAUTT against SETD8,active: -1.52
9,CAUCUAAACUUUACAAACATT against CASR,inactive: 0.111
10,GGAUGGACAUGUCAAAUCUTT against RBL1,inactive: -0.0547
11,GCAUGGGAUUUGCAACGAATT against SPTLC2,inactive: 0
12,CCAAAGGAGUCAGCACUGUTT against PLXNA1,inactive: 0
13,GGCUGAUACUAUUUUACGATT against SLITRK6,inactive: -0.136
14,GCUUUGAUCCCGACUGUAATT against CELSR1,inactive: -0.466
15,GGAGUGAUCUCAACCCUAATT against DUOX2,inactive: 0.525
16,GAAUGAACGGAGACCAGAATT against FDPS,inactive: 0.0115
17,GAGAAGGCAUAGAUCUAAATT against SP100,inactive: -0.235
18,GAUCUAUACCUGCUAAUUATT against RAPGEFL1,inactive: 0.21
19,GGACAUCAGUUAAUAAGGUTT against CEBPZ,inactive: 0.301
20,GUGUAAGGAUCAAAAAGAATT against ZNF682,inactive: -0.155
